Laboratory results taken from patent US20240207410A1, “STABILIZED LIQUID COMPOSITIONS COMPRISING A LEVODOPA-TYROSINE CONJUGATE AND USES THEREOF” (NeuroDerm, Ltd., priority 2021, published 2024).
At least one read-out could not be matched to a standard name with certainty. Where a SMILES comes first, the peptide text is derived from it. [ ]: non-standard residue; d: D form. Dopa = N[C@@H](Cc1ccc(O)c(O)c1)C(=O)O

Assay: Long-term stability of 30% LD-Tyrosine/0.75% carbidopa at 2-8° C.
Type: physicochemical
Description: The formulation also included 0.5% ascorbic acid (Asc), 0.5% N-acetyl cysteine (NAC) and 0.3% Tween 80. The formulation was stored at 2-8° C. for the time indicated, and % recovery and % LD-Tyr-DKP formation (an impurity) were tested. Percent recovery remained high over time. The DKP impurity accumulated over time.

SMILES | % Recovery (1 month) [%] | % Recovery (1 week) [%] | % Recovery (2 months) [%] | % Recovery (2 weeks) [%] | % Recovery (3 months) [%]
N[C@@H](Cc1ccc(O)c(O)c1)C(=O)N[C@@H](Cc1ccc(O)cc1)C(=O)O [LD-Tyr, levodopa-tyrosine (LD-Tyr) conjugate of the formula (II)] (H-[Dopa]-Tyr-OH) | 99.37 | 98.83 | 101.63 | 102.23 | 98.74
C[C@@](Cc1ccc(O)c(O)c1)(NN)C(=O)O [Carbidopa, carbidopa, reference compound] | 99.32 | 99.86 | 99.32 | 99.05 | 99.73
